Laboratory results as given in PubChem BioAssay AID493014 (National Center for Advancing Translational Sciences (NCATS), 2011).
The other results are listed elsewhere or left out. These are further read-outs of the screen, such as a control signal, another cell line or another target. No call is given for them. Compounds called inactive in the main read-out are mostly missing here. The note in brackets gives the kind of curve behind each potency; many fits are weak.

Assay: qHTS Assay to Find Inhibitors of Chronic Active B-Cell Receptor Signaling
Details: ABC-DLBCL IkBa-CBG/CBR reporter, luminescence ratio (green luciferase fused to IkBa over red control in TMD8 lymphoma cells), 4 h
Outline: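 Concentration-response series (up to 46 uM) were applied to TMD8 dual-reporter cells for 4 h at 37C with doxycycline. Green/red ratio, after filter-overlap correction, defined %Activity; red signal alone was normalised to basal cells and zero luminescence.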

[1] = measured here: CBR red luminescence, cell number
[2] = measured here: IkBa-CBG green luminescence

SMILES | AC50 [1] | AC50 [2]
Cc1ccc(C(=O)N2CCN(c3ccc(NC(=O)c4ccc(Br)o4)cc3)CC2)cc1 | 0.411 µM [falling, full curve, poor fit] | –
Cn1c(CN2CCCCC2)nc2cc(NC(=O)c3ccccc3Cl)ccc21 | 7.94 µM [falling, partial curve, poor fit] | –
Cc1ccc(C(CC(=O)NCc2ccco2)c2ccc(OC(C)C)cc2)cc1 (stereo unspecified) | 35.5 µM [falling, partial curve, poor fit] | 12.6 µM [rising, partial curve, poor fit]
CCOc1ccccc1NC(=S)NCC1CCCO1 (stereo unspecified) | 25.9 µM [falling, partial curve, poor fit] | –
CC[C@]12c3[nH]c4ccccc4c3CCN1C(=O)C(CC(=O)NCCC1=CCCCC1)C[C@@H]2C(=O)N1CCN(C(=O)c2ccco2)CC1 (stereo partly specified) | 16.4 µM [falling, partial curve] | –
Cc1cc(C(=O)COC(=O)/C=C/c2ccc(F)cc2)c(C)n1C | 16.4 µM [rising, single point] | –
Cc1cccc(NC2=C(Cl)C(=O)OC2OC(=O)c2ccco2)c1 (stereo unspecified) | 6.31 µM [falling, full curve, poor fit] | –
CCC(C)c1ccc(NC(=O)c2cccs2)cc1 (stereo unspecified) | 18.4 µM [falling, single point] | –
O=C(COC(=O)c1ccc(Cl)cc1O)Nc1cccnc1Cl | 29.1 µM [falling, single point] | –
Cc1cc(Nc2ccc(Cl)cc2)nc(NCc2ccccc2)n1 | 6.51 µM [rising, partial curve, poor fit] | –
Cc1ccc(CCNC(=O)c2ccc3c(c2)N(Cc2cccc(Cl)c2)C(=O)c2ccccc2S3(=O)=O)cc1 | 6.31 µM [rising, partial curve, poor fit] | –
CN=c1scc(C)n1/N=C/c1ccc2c(c1)OCO2 | 29.1 µM [falling, single point] | –
CCOC(=O)c1sc(NC(=S)NC(=O)c2ccccc2)nc1C | 3.55 µM [falling, full curve] | –
COc1cccc(C2CC(c3ccccc3OC)n3nc(N)nc3N2)c1 (stereo unspecified) | 20 µM [rising, partial curve, poor fit] | –
O=C(O)C1CC(=O)N(c2ccc(OCc3ccccc3Cl)cc2)C1 (stereo unspecified) | 8.2 µM [falling, partial curve] | –
CCN(CC(=O)Nc1cc(Cl)ccc1Cl)C(=O)c1ccc(-n2cccn2)cc1 | 11.6 µM [rising, partial curve] | –
CCOc1ccc(C(=O)NC(=S)Nc2ccccc2N2CCC(C)CC2)cc1[N+](=O)[O-] | 35.5 µM [rising, single point] | –
Cc1cc(C)c2nc(SCCC#N)nc(C)c2c1 | 1 µM [rising, full curve, poor fit] | –
O=C(c1cc2cc(Cl)ccc2[nH]1)N1CCN(c2ccc(F)cc2)CC1 | 22.4 µM [rising, single point] | –
COCCN(C(=O)Cc1cccs1)C(C(=O)NC1CCCC1)c1ccc(OC)c(OC)c1 (stereo unspecified) | 35.5 µM [rising, partial curve, poor fit] | –
OCCCNc1nc(-c2ccccc2)nc2c1oc1ccccc12 | 8.91 µM [falling, partial curve, poor fit] | –

SMILES | AC50 [1] | AC50 [2]
CCC(C)NC(=O)CN(C)S(=O)(=O)c1ccc2c(c1)c(=O)n(C)c(=O)n2C (stereo unspecified) | 25.9 µM [rising, partial curve, poor fit] | –
C#CCOCCOCCOCCNc1nc(N2CCN(C(=O)CCCCCCCCCCNC(=O)Cn3cc(CCCCCN)nn3)CC2)nc(N2CCN(C(=O)CCCCCCCCCCNC(=O)[C@@H](CCSC)n3cc(CCO)nn3)CC2)n1 | 29.1 µM [rising, single point] | 29.1 µM [falling, partial curve, poor fit]
Cc1ccc(Cl)cc1NC(=S)N(Cc1ccco1)C(C)c1cccs1 (stereo unspecified) | 17.8 µM [falling, partial curve] | –
CCOCCN(C(=O)COC)c1cccc(OC)c1 | 12.6 µM [rising, partial curve] | –
COc1ccc(CN(C)C(=O)CCCNC(=O)c2ccc(Cl)cc2)cc1 | 4.47 µM [rising, single point] | –
CCCCCCc1ccc(O)cc1O | 20.6 µM [rising, single point] | –
Cc1ccc(NC(=O)Cn2ncc(Cl)c(Cl)c2=O)cc1S(=O)(=O)N1CCCCC1 | 5.8 µM [falling, partial curve] | –
O=C(Cc1cccs1)OCC(=O)c1ccco1 | 5.62 µM [rising, partial curve, poor fit] | –
CCN1CCN(CCNC(=O)c2ccc3c(c2)N(Cc2ccc(F)cc2)C(=O)/C(=C/c2ccccc2)S3)CC1 | 7.08 µM [falling, partial curve] | –
Cc1ccc(N(C(=O)CS(=O)CC(=O)Nc2ccc(F)cc2)C(C(=O)NC2CCCCC2)c2ccco2)cc1 (stereo unspecified) | 2.06 µM [falling, single point] | –
Cc1noc(NS(=O)(=O)c2ccc(NC(=O)CSc3nnc(-c4ccccc4)n3C3CCCCC3)cc2)c1C | 1.84 µM [falling, partial curve, poor fit] | –
COc1ccc(/C=N\NC(=O)c2c(C)nc3ccc(Br)cn23)cc1 | 9.2 µM [rising, partial curve] | 10.3 µM [falling, partial curve]
O=C(O)c1ccc(-c2nnc(-c3ccccc3)o2)cc1 | 7.94 µM [falling, partial curve, poor fit] | –
COc1cccc(CNC(=O)Cn2cc([N+](=O)[O-])cn2)c1 | 35.5 µM [rising, single point] | –
Cc1cccc(C)c1OCC(=O)Nn1c(COc2ccccc2)nc2ccccc2c1=O | 5.8 µM [falling, partial curve] | –
O=C(Nc1ccncc1)c1cn(-c2ccccc2)nc1-c1cccs1 | 10.3 µM [falling, single point] | 16.4 µM [falling, partial curve, poor fit]
CCOc1ccccc1NC(=O)NCCc1c[nH]c2ccccc12 | 3.55 µM [falling, partial curve, poor fit] | –
COc1ccc(NC(=O)NCCN2CCCCC2)cc1 | 3.98 µM [rising, single point] | –
N#CC(C#N)C(c1ccsc1)c1c(-c2ccccc2)[nH][nH]c1=O (stereo unspecified) | 29.1 µM [falling, single point] | –
Cc1ccc(-n2cccc2/C=C2\C(=N)N3N=C(c4ccco4)SC3=NC2=O)cc1 | 2.82 µM [falling, full curve] | –
COc1ccc(CCNC(=O)C(=O)NCC(c2cccs2)S(=O)(=O)c2ccc(C)cc2)cc1 (stereo unspecified) | 0.1 µM [rising, full curve, poor fit] | –

Complete entries, quoted from the list.
Cc1cc(Nc2ccc(Cl)cc2)nc(NCc2ccccc2)n1 as listed: AC50 [1]: 6.51 µM [rising, partial curve, poor fit]
CCOc1ccccc1NC(=O)NCCc1c[nH]c2ccccc12 as listed: AC50 [1]: 3.55 µM [falling, partial curve, poor fit]

The list continues:

SMILES | AC50 [1] | AC50 [2]
O=C(CNC(=O)c1ccc(Cl)c([N+](=O)[O-])c1)OC1CCCCC1=O (stereo unspecified) | 29.1 µM [falling, single point] | –
CN(C)C=Nc1nc2ccccc2nc1N1CCCC1 | 20 µM [falling, single point] | –
Cc1ccc2nc(NS(=O)(=O)c3cn(C)nc3C)sc2c1 | 3.16 µM [rising, single point] | 5.62 µM [falling, single point]
COc1ccc(C(=O)Nc2cccc(C)c2)cc1 | 4.47 µM [falling, partial curve] | –
C=CCN(c1nc(C)c(Br)c(OC)n1)S(=O)(=O)c1ccc(C)cc1 | 35.5 µM [rising, single point] | –
COc1cc2c(cc1NC(=S)Nc1cccc3ccccc13)oc1ccccc12 | 0.651 µM [falling, full curve, poor fit] | –
O=C(Nc1ccc(F)cc1)N1CCN(c2ncccn2)CC1 | 11.2 µM [falling, single point] | –
O=C(CC1C(=O)N(c2ccc(Cl)cc2)C(=S)N1CCc1ccncc1)Nc1ccc(F)cc1 (stereo unspecified) | 20 µM [falling, partial curve, poor fit] | –
CC(C)(C(N)=O)N1CCN(c2ncc(C(F)(F)F)cc2Cl)CC1 | 0.184 µM [falling, full curve, poor fit] | –
CC1=CCC(C(=O)O)C(C(=O)Nc2ccc(-c3nc4ccc(C)cc4s3)cc2)C1 (stereo unspecified) | 35.5 µM [falling, single point] | –
CC1CCc2nn(CC(=O)N3CCc4ccccc43)cc2C1 (stereo unspecified) | 6.51 µM [falling, single point] | –
Brc1ccc(OCCOCCN2CCOCC2)cc1 | 11.6 µM [rising, partial curve, poor fit] | –
O=C(CSc1nnc(SCc2ccc(F)cc2)s1)Nc1ccc(C(=O)O)cc1 | 8.91 µM [falling, partial curve, poor fit] | –
CCc1c(C)[nH]c(C(=O)OCc2ccccc2)c1C | 7.94 µM [rising, partial curve] | –
Cc1ccc(-c2nc3cnccn3c2Nc2ccc3c(c2)OCO3)cc1 | 35.5 µM [falling, single point] | –
COc1ccc(C2NC(=O)CCC2[N+](=O)[O-])cc1OC (stereo unspecified) | 15.8 µM [falling, partial curve, poor fit] | –
CC1CN(c2cc(-c3ccccc3)c3ccccc3n2)CC(C)O1 (stereo unspecified) | 20.6 µM [rising, partial curve, poor fit] | –
Cc1ccn2c(NC(=O)c3ccccc3)c(-c3ccccc3)nc2c1 | 0.112 µM [rising, full curve, poor fit] | –
Cc1cccc(CS(=O)(=O)c2ncc(Cl)c(C(=O)Nc3c(C)cccc3C)n2)c1 | 20 µM [falling, single point] | –
